Results as given in patent publication US10563263B2, “Genetic polymorphisms associated with statin response and cardiovascular diseases, methods of detection and uses thereof” (CELERA CORPORATION, priority 2010, dated 2020).
The source gives many values for each of these; only a part stands here.

Tested on: revascularization, unstable angina requiring hospitalization, MI, all causes of death, or stroke
Experiment: PROVE IT-TIMI 22: SNP by treatment interaction (high-dose atorvastatin vs standard-dose pravastatin), logistic regression (synergy index), primary composite endpoint
Format: in vivo, human

CC(C)c1c(C(=O)Nc2ccccc2)c(-c2ccccc2)c(-c2ccc(F)cc2)n1CC[C@@H](O)C[C@@H](O)CC(=O)O [Atorvastatin, atorvastatin]
OR (SNP rs4615971 allele C, model DOM, Imputed, ATORVA vs PRAVA): 1.347
OR (SNP rs4628119 allele A, model DOM, Imputed, ATORVA vs PRAVA): 1.055
OR (SNP rs4664443 allele G, model ADD, Imputed, ATORVA vs PRAVA): 1.009
OR (SNP rs4688259 allele T, model DOM, Imputed, ATORVA vs PRAVA): 1.386
OR (SNP rs4688632 allele G, model REC, Imputed, ATORVA vs PRAVA): 0.6822
OR (SNP rs4695284 allele A, model ADD, Imputed, ATORVA vs PRAVA): 1.444
OR (SNP rs4700302 allele A, model ADD, Imputed, ATORVA vs PRAVA): 1.136
OR (SNP rs4702720 allele A, model ADD, Imputed, ATORVA vs PRAVA): 0.757
OR (SNP rs4702720 allele A, model DOM, Imputed, ATORVA vs PRAVA): 0.6462
OR (SNP rs4714484 allele A, model ADD, Imputed, ATORVA vs PRAVA): 0.8396
OR (SNP rs4736802 allele G, model DOM, Imputed, ATORVA vs PRAVA): 0.9844
OR (SNP rs4760785 allele A, model ADD, Imputed, ATORVA vs PRAVA): 0.7137
OR (SNP rs4760785 allele A, model DOM, Imputed, ATORVA vs PRAVA): 0.7026
OR (SNP rs4760894 allele T, model ADD, Imputed, ATORVA vs PRAVA): 0.7137
OR (SNP rs4760894 allele T, model DOM, Imputed, ATORVA vs PRAVA): 0.7026
OR (SNP rs4760895 allele A, model ADD, Imputed, ATORVA vs PRAVA): 0.7137
OR (SNP rs4760895 allele A, model DOM, Imputed, ATORVA vs PRAVA): 0.7026
OR (SNP rs4764738 allele A, model ADD, Imputed, ATORVA vs PRAVA): 0.9549
OR (SNP rs4764974 allele T, model ADD, Imputed, ATORVA vs PRAVA): 0.9019
OR (SNP rs4798366 allele G, model REC, Imputed, ATORVA vs PRAVA): 2.754
OR (SNP rs4836502 allele T, model DOM, Imputed, ATORVA vs PRAVA): 0.5934
OR (SNP rs4836507 allele C, model DOM, Imputed, ATORVA vs PRAVA): 0.5803
OR (SNP rs4836744 allele A, model ADD, Imputed, ATORVA vs PRAVA): 0.7176
OR (SNP rs36071725 allele C, model ADD, Genotyped, ATORVA vs PRAVA): 0.9696
OR (SNP rs41395945 allele G, model ADD, Imputed, ATORVA vs PRAVA): 1.822
OR (SNP rs41395945 allele G, model DOM, Imputed, ATORVA vs PRAVA): 1.919
OR (rs152707, allele A, ADD, Imputed, PROVE-IT, vs pravastatin): 1.066
OR (rs152712, allele C, ADD, Genotyped, PROVE-IT, vs pravastatin): 1.066
OR (rs198460, allele G, REC, Genotyped): 1.956
OR (rs198461 allele C (A1), DOM, Imputed, atorvastatin vs pravastatin): 0.5222
OR (rs208026, allele A, DOM, Genotyped, PROVE-IT, vs pravastatin): 1.559
OR (rs208029, allele T, DOM, Imputed, PROVE-IT, vs pravastatin): 1.924
OR (rs208757, allele G, DOM, Imputed, PROVE-IT, vs pravastatin): 1.858
OR (rs208757 allele G (A1), ADD, Imputed, atorvastatin vs pravastatin): 1.552
OR (rs208757 allele G (A1), DOM, Imputed, atorvastatin vs pravastatin): 1.858
OR (rs229775, allele A, REC, Imputed, PROVE-IT, vs pravastatin): 0.6598
OR (rs229815, allele T, REC, Imputed, PROVE-IT, vs pravastatin): 0.6306
OR (rs229829, allele C, REC, Imputed, PROVE-IT, vs pravastatin): 0.5855
OR (rs229831, allele A, REC, Imputed, PROVE-IT, vs pravastatin): 0.6194
OR (rs238252, allele G, DOM, Imputed, PROVE-IT, vs pravastatin): 1.191
OR (rs264126 allele C (A1), DOM, Imputed, atorvastatin vs pravastatin): 0.6379
OR (rs264129 allele T (A1), DOM, Imputed, atorvastatin vs pravastatin): 0.6399
OR (rs373983 allele G, DOM, Imputed, atorvastatin vs pravastatin): 1.954
OR (rs399485 allele A, DOM, Imputed, atorvastatin vs pravastatin): 1.648
OR (rs483159 allele T, DOM, Imputed, atorvastatin vs pravastatin): 1.953
OR (rs489441 allele G, DOM, Imputed, atorvastatin vs pravastatin): 1.384
OR (rs581905 allele T, DOM, Imputed, atorvastatin vs pravastatin): 2.177
OR (rs603940, allele G, REC, Genotyped): 0.3862
OR (rs613799 allele C model DOM Imputed, ATORVA vs PRAVA): 1.391
OR (rs644041 allele G model ADD Imputed, ATORVA vs PRAVA): 1.202
OR (rs644041 allele G model DOM Imputed, ATORVA vs PRAVA): 1.351
OR (rs670593 allele A model REC Imputed, ATORVA vs PRAVA): 0.3987
OR (rs687047 allele C model ADD Imputed, ATORVA vs PRAVA): 0.5642
OR (rs688358 allele A model ADD Imputed, ATORVA vs PRAVA): 0.5756
OR (rs710832 allele A model REC Genotyped, ATORVA vs PRAVA): 0.4518
OR (rs712531 allele A model DOM Imputed, ATORVA vs PRAVA): 2.784
OR (rs722927 allele G model ADD Imputed, ATORVA vs PRAVA): 0.8492
OR (rs722927 allele G model DOM Imputed, ATORVA vs PRAVA): 0.874
OR (rs726424 allele G model ADD Genotyped, ATORVA vs PRAVA): 0.7827
OR (rs737542 allele A model REC Imputed, ATORVA vs PRAVA): 2.077
OR (rs742827 allele A model ADD Imputed, ATORVA vs PRAVA): 1.396
OR (rs755117 allele A model DOM Imputed, ATORVA vs PRAVA): 0.7161
OR (rs757173 allele G model DOM Genotyped, ATORVA vs PRAVA): 1.033
OR (rs892575 allele T, ADD model, Imputed, atorvastatin vs pravastatin): 1.044
OR (rs892583 allele G, ADD model, Imputed, atorvastatin vs pravastatin): 1.079
OR (rs915494 allele A, ADD model, Imputed, atorvastatin vs pravastatin): 1.399
OR (rs915494 allele A, DOM model, Imputed, atorvastatin vs pravastatin): 1.486
OR (rs917295 allele G, DOM model, Imputed, atorvastatin vs pravastatin): 0.5934
OR (rs922594 allele T, DOM model, Imputed, atorvastatin vs pravastatin): 0.5826
OR (rs937890 allele G, DOM model, Imputed, atorvastatin vs pravastatin): 0.5127
OR (rs949016 allele C, ADD model, Imputed, atorvastatin vs pravastatin): 1.063
OR (rs966583 allele A, ADD model, Imputed, atorvastatin vs pravastatin): 0.7596
OR (rs966583 allele A, DOM model, Imputed, atorvastatin vs pravastatin): 0.6781
OR (rs974130 allele A, REC model, Genotyped, atorvastatin vs pravastatin): 0.8861
OR (rs977160 allele T, ADD model, Imputed, atorvastatin vs pravastatin): 0.9972
OR (rs1003148, allele C, ADD, Imputed): 0.7405
OR (rs1003148, allele C, REC, Imputed): 0.4879
OR (rs1008705, allele C, DOM, Imputed): 2.01
OR (rs1012924, allele G, ADD, Imputed): 1.725
OR (rs1012924, allele G, DOM, Imputed): 1.754
OR (rs1017558, allele A, REC, Imputed): 0.7905
OR (rs1030006, allele G, REC, Imputed, atorvastatin vs pravastatin): 0.87
OR (rs1031811, allele A, REC, Imputed, atorvastatin vs pravastatin): 2.698
OR (rs1032188, allele G, REC, Imputed): 0.3936
OR (rs1065639, allele C, DOM, Imputed): 2.955
OR (rs1116596, allele T, DOM, Imputed): 0.593
OR (rs1116596, allele T, DOM, Imputed, atorvastatin vs pravastatin): 0.593
OR (rs1149350, allele A, ADD, Imputed, atorvastatin vs pravastatin): 0.7733
OR (rs1149350, allele A, DOM, Imputed): 0.8901
OR (rs1149350, allele A, DOM, Imputed, atorvastatin vs pravastatin): 0.8901
OR (rs1150143, allele G, DOM, Imputed): 1.007
OR (rs1232298 allele G REC Imputed): 1.995
OR (rs1241967 allele T, REC, Imputed, atorvastatin vs pravastatin): 0.6598
OR (rs1247340 allele C DOM Imputed): 0.9041
OR (rs1247340 allele C, ADD, Imputed, atorvastatin vs pravastatin): 0.7681
OR (rs1247340 allele C, DOM, Imputed, atorvastatin vs pravastatin): 0.9041
OR (rs1247341 allele C DOM Imputed): 0.919
OR (rs1247341 allele C, ADD, Imputed, atorvastatin vs pravastatin): 0.7805
OR (rs1247341 allele C, DOM, Imputed, atorvastatin vs pravastatin): 0.919
OR (rs1247343 allele C, DOM, Imputed, atorvastatin vs pravastatin): 1.064
OR (rs1321432 allele A REC Imputed): 0.9755
OR (rs1321457 allele G REC Imputed): 0.9425
OR (rs1335721 allele A, REC, Imputed, atorvastatin vs pravastatin): 0.8982
OR (rs1336407 allele T DOM Imputed): 1.347
OR (rs1336407 allele T, DOM, Imputed, atorvastatin vs pravastatin): 1.347
OR (rs1336409 allele T DOM Imputed): 1.347
OR (rs1336409 allele T, DOM, Imputed, atorvastatin vs pravastatin): 1.347
OR (rs1336596 allele A DOM Imputed): 0.9849
OR (rs1336596 allele A, DOM, Imputed, atorvastatin vs pravastatin): 0.9849
OR (rs1343560 allele T ADD Imputed): 1.717
OR (rs1343560 allele T DOM Imputed): 1.745
OR (rs1355715 allele T, ADD, Imputed, atorvastatin vs pravastatin): 0.6617
OR (rs1363273 allele C, REC, Imputed, atorvastatin vs pravastatin): 0.9417
OR (rs1373601 allele A, DOM, Imputed, atorvastatin vs pravastatin): 0.9323
OR (rs1386153 allele T ADD Imputed): 0.8596
OR (rs1386153 allele T DOM Imputed): 0.8546
OR (rs1394015 allele C DOM Imputed): 2.85
OR (rs1407038 allele A REC Imputed): 0.9523
OR (rs1407039 allele A REC Imputed): 0.9755
OR (rs1414865 allele T DOM Imputed): 1.352
OR (rs1414865 allele T, DOM, Imputed, atorvastatin vs pravastatin): 1.352
OR (rs1414873 allele A DOM Imputed): 1.347
OR (rs1414873 allele A, DOM, Imputed, atorvastatin vs pravastatin): 1.347
OR (rs1414876 allele C DOM Imputed): 1.347
OR (rs1414876 allele C, DOM, Imputed, atorvastatin vs pravastatin): 1.347
OR (rs1418671 allele C REC Imputed): 1.095
OR (rs1424643 allele G, ADD, Imputed, atorvastatin vs pravastatin): 1.447
OR (rs1424643 allele G, DOM, Imputed, atorvastatin vs pravastatin): 1.694
